At least one structure is not confirmed: it was looked up by name or label, or the drawing left a doubt.
Experiment: Binding to microcrystalline hydroxyapatite from dilute aqueous solution
Description: The ability of the compounds of the present invention to act as bone targeted pharmaceuticals is estimated initially by determination of the ability of the compounds to be bound to microcrystalline hydroxyapatite [Ca10(PO4)6.OH2] (HA) from a dilute aqueous solution. Solutions of test compounds are constructed in about 99: 1, v/v, H2O:dimethylsulfoxide (DMSO) at 10^−5M. These solutions are taken for determination of electronic photometric absorption spectra scanning from λ=500-190 nm. Absorption maxima (λmax) and extinction coefficients (ε) are determined using the Beer-Lambert law. […] These solutions and slurries are mixed for about 4 minutes, then centrifuged for about 3 minutes at 10,000×g. Supernatants are taken for UV absorption spectrometry at previously determined λmax. Concentrations of test compound are determined and the extent of binding is calculated. Tetracycline is included as a positive control compound.

For `CN(C)[C@@H]1C(O)=C(C(N)=O)C(=O)[C@@]2(O)C(O)=C3C(=O)c4c(O)cccc4[C@@](C)(O)[C@H]3C[C@@H]12` [Tetracycline], which “% Adsorbed” value (10^-5 M in 99:1 H2O:DMSO, 0.5% (w/v) slurried HA in Tris, mixed about 4 minutes, UV of supernatant) is on record?
The value was 51.6%.

What about the “Binding Index” value (Tetracycline positive control = 100) of the same molecule?
The value was 100.

— patent US20050143366A1, “Compounds for diagnosis, treatment and prevention of bone injury and metabolic disorders” (priority 2003, published 2005)
